Test results as given in CN114773485A.
Results are given in words; binding and its absence hold for the method and conditions named. Some entries that bind do so weakly or less than the wild type.

By UniProt entry, the sequences of proteins in these tests, tags left out. Residues count along the entry.
UniProt Q9NZQ7, residues 19-290: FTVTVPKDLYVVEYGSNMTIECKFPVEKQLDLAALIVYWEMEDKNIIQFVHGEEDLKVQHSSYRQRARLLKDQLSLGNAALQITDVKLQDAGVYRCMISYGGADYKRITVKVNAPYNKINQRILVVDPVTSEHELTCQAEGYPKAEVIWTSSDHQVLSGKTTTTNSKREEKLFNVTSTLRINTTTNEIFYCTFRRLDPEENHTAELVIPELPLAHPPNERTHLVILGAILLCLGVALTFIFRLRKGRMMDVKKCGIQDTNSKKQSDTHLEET

Target: PD-L1 on CHO-PD-L1 cells (UniProt Q9NZQ7)
Assay: flow cytometry on CHO-PD-L1 cells

binding: binds
B1: 人源化抗PD-L1抗体156-BM12 (antibody, V domains shown)
VH: QVQLVQSGPELKKPGASVKISCKASGYTFTDYYMNWVRQAPGQSLEWIGDINPNNGDTSYNQKFKGRVTLTRDTSTSTVYMELRSLRSEDTAVYYCARSVMDYWGQGTLVTVSS
VL: EIVLTQSPALLSLSPGERVTLSCSASSSVNYVYWYQQKPGQAPRPLIYLTFNLASGIPARFSGSGSGTDFTLTISSLEPEDFAVYYCQQWSSNPLTFGGGTKVEIK
